No constants are given. Whether binding was seen depends on the method and setting. Binding seen in cells or lysates may run through a third protein. Some entries that bind do so weakly or less than the wild type. Tags and fused reporters may be left off the sequences shown.
Biological target: T1, FLAG-tagged CLDN11-3F (claudin 11) (human) (UniProt O75508)
T1 sequence: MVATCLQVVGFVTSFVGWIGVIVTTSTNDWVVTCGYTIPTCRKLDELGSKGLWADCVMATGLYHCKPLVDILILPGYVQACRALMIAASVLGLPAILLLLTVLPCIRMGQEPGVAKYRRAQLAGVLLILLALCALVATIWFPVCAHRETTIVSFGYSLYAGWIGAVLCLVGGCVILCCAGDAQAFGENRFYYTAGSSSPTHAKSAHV
Assay: co-IP; FLAG-tagged CLDN11-3F or vector control transiently overexpressed in NPC cells; precipitated with Flag M2 beads; endogenous TUBA1B and TUBB3 detected by immunoblot

The chains behind the UniProt entries cited, without tags or fusion partners.
UniProt Q13509: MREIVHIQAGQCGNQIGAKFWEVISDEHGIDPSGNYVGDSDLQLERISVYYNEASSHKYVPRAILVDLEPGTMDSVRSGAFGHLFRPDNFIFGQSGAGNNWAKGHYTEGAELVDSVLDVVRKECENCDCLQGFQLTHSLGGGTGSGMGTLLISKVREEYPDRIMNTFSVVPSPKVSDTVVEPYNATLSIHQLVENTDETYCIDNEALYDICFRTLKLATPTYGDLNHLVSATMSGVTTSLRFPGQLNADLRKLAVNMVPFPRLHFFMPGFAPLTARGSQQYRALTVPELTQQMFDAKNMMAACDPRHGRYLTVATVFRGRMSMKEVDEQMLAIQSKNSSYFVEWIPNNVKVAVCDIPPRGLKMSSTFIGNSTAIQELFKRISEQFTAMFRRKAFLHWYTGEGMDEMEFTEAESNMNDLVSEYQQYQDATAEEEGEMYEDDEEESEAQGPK
UniProt P68363: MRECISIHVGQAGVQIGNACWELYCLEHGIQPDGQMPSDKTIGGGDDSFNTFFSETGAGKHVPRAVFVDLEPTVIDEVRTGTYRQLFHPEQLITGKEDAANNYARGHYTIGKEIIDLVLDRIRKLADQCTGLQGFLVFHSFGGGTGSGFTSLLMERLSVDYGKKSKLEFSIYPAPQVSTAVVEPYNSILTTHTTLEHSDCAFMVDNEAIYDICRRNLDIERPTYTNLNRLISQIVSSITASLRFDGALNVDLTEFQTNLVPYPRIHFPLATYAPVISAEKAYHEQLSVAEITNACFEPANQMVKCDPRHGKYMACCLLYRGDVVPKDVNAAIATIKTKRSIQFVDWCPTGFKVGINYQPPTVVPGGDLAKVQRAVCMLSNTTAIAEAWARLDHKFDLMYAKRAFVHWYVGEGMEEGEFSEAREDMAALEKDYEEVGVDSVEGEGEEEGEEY

| binding | Substance |
| --- | --- |
| binds | tubulin beta-3 (TUBB3) (from UniProt Q13509 1-450) |
| binds | tubulin alpha-1B (TUBA1B) (from UniProt P68363 1-451) |

Source: article PMC5946489, “Inactivation of the tight junction gene CLDN11 by aberrant hypermethylation modulates tubulins polymerization and promotes cell migration in nasopharyngeal carcinoma”
